Out of some 360,000 compounds screened, about 7,500 (2.1%) were called active. Inconclusive means that the source gave no clear call. Such entries were picked first, then a sample of the others. Calls come from the whole dose curve; as a rule, active = well fitted inhibition curve with a large enough effect; inconclusive = small, poorly fitted or top-dose-only effect, or effect the other way; inactive = flat fitted curve, though single readings scatter. Where the call is inconclusive, the potency comes from a doubtful curve fit.
Test: Nrf2 qHTS screen for inhibitors; note: nearly all actives have a fitted effect of over 60% in size
Conditions: A549 ARE-Fluc reporter, luciferase luminescence, 18-24 h; series mostly up to 46 µM
Procedure, shortened: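 Quantitative HTS in A549 cells stably bearing an antioxidant response element-firefly luciferase construct. Inhibition of Nrf2-driven transcription was scored by luminescence after 18-24 h of compound exposure at 37 °C.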
Potency is the fitted concentration of half-maximal effect.

Structure (SMILES) | Potency
Cc1ccc(C)c(-c2nnc(NC(=O)c3ccco3)o2)c1 | inconclusive: 32.6 µM [falling, single point]
CC(/C=N/Nc1nc2ccccc2[nH]1)=C\c1ccccc1 | inconclusive: 5.8 µM [activator, partial curve]
COc1ccc(NC(=O)c2cnc3sc(N4CCOCC4)nn3c2=O)c(OC)c1 | inconclusive: 20.6 µM [activator, partial curve]
CCOC(=O)c1csc(Nc2nc3ccc(F)cc3s2)n1 | inconclusive: 29.1 µM [falling, single point]
COc1cc(/C=C/C(=O)Nc2ccc(OC)c(S(=O)(=O)N3CCOCC3)c2)ccc1OC(F)F | active: 18.4 µM
CCc1cc(Br)ccc1N1C(=O)C2CC=CCC2C1=O (stereo not given) | inconclusive: 20.6 µM [falling, single point]
CCCCCC(=O)N/N=C/c1ccc(N(C)C)cc1 | inconclusive: 2.91 µM [activator, full curve, poor fit]
Cc1ccc(C)c(NC(=O)Cn2cc(S(=O)(=O)NC(C)C)c(S(=O)(=O)NC(C)C)c2)c1 | inconclusive: 16.4 µM [activator, partial curve]
CCn1c(CSc2ncn[nH]2)nc2cc(C(=O)O)ccc21 | inconclusive: 11.6 µM [falling, partial curve, poor fit]
COc1cc(/C=C(\C#N)C(=O)NC2CCCCC2C)ccc1OS(=O)(=O)c1ccc(C)cc1 (stereo not given) | inconclusive: 29.1 µM [falling, single point]
CCCCCCOC(=O)CC1CC(C(C)=O)C1(C)C (stereo not given) | inconclusive: 9.2 µM [activator, partial curve]
O=[N+]([O-])c1ccc2c(c1)[nH]c(=S)n2-c1ccccc1 | inconclusive: 16.4 µM [falling, partial curve, poor fit]
COc1ccc(Cn2c(C(=O)O)c(CNCc3ccc(C)o3)c3ccc(OC)cc32)cc1 | inactive
CCn1c(SCc2nc(-c3cccs3)no2)nnc1-c1c[nH]c2ccccc12 | active: 18.4 µM
CCCNCc1cc(OC)c(OCC(=O)Nc2ccccc2)cc1Br | inconclusive: 29.1 µM [activator, single point]
COc1ccccc1NC(=S)N(CCCN1CCOCC1)Cc1cccs1 | inconclusive: 0.0041 µM [falling, full curve, poor fit]
CCCOP(=O)(c1ccc(N(C)C)cc1)C(Nc1ccccc1)c1ccc(C)cc1 (stereo not given) | inconclusive: 29.1 µM [falling, single point]
[S-]C(=Nc1ccc(Cl)cc1)N[n+]1ccccc1 | inactive
O=C(Nc1cccc(NC(=O)c2cc([N+](=O)[O-])ccc2Cl)n1)c1cc([N+](=O)[O-])ccc1Cl | inconclusive: 2.06 µM [activator, partial curve, poor fit]
O=C(c1cccnc1)N1CCC(Oc2ccc(C(=O)N3CCCCO3)cc2)CC1 | inconclusive: 29.1 µM [falling, single point]

Filtered by structure, those above containing bromine
Structure (SMILES) | Potency
CCc1cc(Br)ccc1N1C(=O)C2CC=CCC2C1=O (stereo not given) | inconclusive: 20.6 µM [falling, single point]
CCCNCc1cc(OC)c(OCC(=O)Nc2ccccc2)cc1Br | inconclusive: 29.1 µM [activator, single point]

Remaining list, next part:

Structure (SMILES) | Potency
COc1ccc(/C(C)=N/Nc2nc(C)cc(-c3ccccc3)n2)cc1 | active: 14.6 µM
COC(=O)c1ccc(C(=O)Nc2ccc3nc(-c4cccnc4)[nH]c3c2)cc1 | inconclusive: 8.2 µM [falling, partial curve, poor fit]
N#CC1=C(N)NC(SCC(=O)Nc2ccc(Br)cc2)=C(C#N)C12CCCCC2 | inconclusive: 18.4 µM [falling, single point]
CC(C)(C)NS(=O)(=O)c1ccc(NC(=O)c2cc(-c3ccccc3)nc3ccccc23)cc1 | inconclusive: 6.51 µM [falling, single point]
O=C1N2c3ccccc3CCc3cccc(c32)C1(O)C(F)(F)F (stereo not given) | inconclusive: 3.66 µM [falling, partial curve, poor fit]
COc1ccc(C(=O)NCCNc2nc3cc(C)c(C)cc3cc2C)cc1 | inconclusive: 0.184 µM [activator, partial curve, poor fit]
O=C(Nc1nnc(-c2cccs2)o1)c1cccc(C(F)(F)F)c1 | inconclusive: 14.6 µM [falling, single point]
COc1cccc(-c2csc(N3CCN(CC(=O)Nc4ccc5c(c4)OCO5)CC3)n2)c1 | inconclusive: 23.1 µM [falling, single point]
CC(C)(C)c1nnc(N/N=C/c2ccccc2O)n(N)c1=O | inconclusive: 25.9 µM [falling, single point]
Cc1ccc(-c2nc(Cn3c(SCc4ccc(F)cc4)nc4cccnc43)c(C)o2)cc1 | inconclusive: 29.1 µM [falling, single point]
COc1ccc(C(=O)Nc2nonc2-c2ccc(OC)c(OC)c2)cc1Cl | inconclusive: 16.4 µM [falling, single point]
Cc1cccc(C)c1NC(=O)CN(C)C(=O)c1ccc(N2C(=O)CCC2=O)cc1 | inactive
COC(=O)c1ccc2nc(NC(=O)C3CCCCC3)sc2c1 | inconclusive: 4.61 µM [activator, partial curve]
Cc1noc(NC(=O)c2ccc(Cl)cc2)c1Cl | inconclusive: 29.1 µM [activator, single point]
CCCn1c(NCc2ccccc2F)nc2ccccc21 | inconclusive: 20.6 µM [activator, partial curve]
Cc1cccc(N2CCN(C(=O)Cc3ccc(Br)cc3)CC2)c1C | inconclusive: 29.1 µM [falling, single point]
CCCNC(=O)c1ccc(C2SCC(=O)N2CCc2ccccc2)cc1 (stereo not given) | inconclusive: 29.1 µM [falling, single point]
Nc1nc(NC(=O)c2cccc(S(=O)(=O)N3CCCCCC3)c2)nc(-c2ccccc2)n1 | inconclusive: 10.3 µM [falling, partial curve]
CCOC(=O)CNC(=O)c1sc(NC(=O)c2ccccc2F)nc1C | inconclusive: 1.64 µM [activator, full curve]
FC(F)(F)c1cccc(-n2c(Cn3nnc4ccccc43)n[nH]c2=S)c1 | inconclusive: 29.1 µM [falling, single point]

— PubChem BioAssay AID504444 (National Center for Advancing Translational Sciences (NCATS), 2011)
